Source: patent US20240025965A1 (UNIVERSITEIT TWENTE, published 2024)
These are yes or no findings as the source states them, for the method shown. Some results given as binding are weak or reduced against the parent protein; the word gives no strength.

Key:
[1] = target: T1, ITGA11 on human stellate cells (LX2 hepatic stellate cells; primary pancreatic stellate cells) (human) (UniProt Q9UKX5); test: fluorescence microscopy of FITC-labelled peptide on LX2 hepatic stellate cells, with DAPI and phalloidin
T1 sequence (looked up): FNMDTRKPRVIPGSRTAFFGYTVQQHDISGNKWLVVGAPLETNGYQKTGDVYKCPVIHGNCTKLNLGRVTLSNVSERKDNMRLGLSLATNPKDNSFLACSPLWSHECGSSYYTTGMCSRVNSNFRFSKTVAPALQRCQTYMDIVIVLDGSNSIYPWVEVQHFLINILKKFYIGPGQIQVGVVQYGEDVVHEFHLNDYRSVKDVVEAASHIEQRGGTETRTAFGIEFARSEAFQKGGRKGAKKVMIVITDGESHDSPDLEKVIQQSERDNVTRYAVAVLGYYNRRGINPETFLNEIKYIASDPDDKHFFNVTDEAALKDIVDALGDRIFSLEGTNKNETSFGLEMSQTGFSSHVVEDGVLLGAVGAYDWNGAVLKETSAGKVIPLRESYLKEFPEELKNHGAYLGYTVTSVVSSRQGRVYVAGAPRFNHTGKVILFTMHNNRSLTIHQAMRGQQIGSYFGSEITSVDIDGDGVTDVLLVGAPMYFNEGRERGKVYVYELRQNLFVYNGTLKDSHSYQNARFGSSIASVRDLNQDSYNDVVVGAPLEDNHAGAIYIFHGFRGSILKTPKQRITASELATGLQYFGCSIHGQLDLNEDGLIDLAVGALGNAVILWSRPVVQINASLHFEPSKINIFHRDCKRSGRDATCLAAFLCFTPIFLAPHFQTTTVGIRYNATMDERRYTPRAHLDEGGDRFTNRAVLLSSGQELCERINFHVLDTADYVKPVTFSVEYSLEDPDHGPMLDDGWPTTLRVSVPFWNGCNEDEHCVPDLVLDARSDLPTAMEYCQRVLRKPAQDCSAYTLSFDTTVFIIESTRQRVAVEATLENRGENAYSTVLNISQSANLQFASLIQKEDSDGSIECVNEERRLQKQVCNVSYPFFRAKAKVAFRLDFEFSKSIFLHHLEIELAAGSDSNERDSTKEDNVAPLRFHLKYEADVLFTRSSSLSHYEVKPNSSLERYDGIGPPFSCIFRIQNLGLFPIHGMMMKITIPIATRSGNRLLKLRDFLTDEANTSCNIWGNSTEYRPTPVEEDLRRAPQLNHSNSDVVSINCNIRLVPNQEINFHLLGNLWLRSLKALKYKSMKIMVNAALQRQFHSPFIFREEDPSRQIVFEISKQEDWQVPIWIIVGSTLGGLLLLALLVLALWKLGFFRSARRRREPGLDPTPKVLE

rhIntegrin α11β1 [2] = target: T2, rhIntegrin α11β1 (human, UniProt Q9UKX5 23-1141; P05556 21-728, limits assumed); test: peptide microarray: peptide fixed by its N-terminus through a PEG linker, incubated with α11β1 receptor (10 µg/ml), anti-ITGA11 antibody and fluorescent secondary antibody, signal of the antibodies alone subtracted
T2 construct: Bought from R&D Systems; also called α11β1 receptor; ITGA11 receptor
Protocol: Peptide microarray was prepared by conjugating peptides at their N-terminal to a glass slide using a PEG linker. […] For the binding studies, the peptide array was blocked with 3% BSA in TBST for 2 hours. Then the array slide was washed 5 times in TB ST and subsequently incubated with the target receptor (α11β1, 10 μg/ml dissolved in PBS) for 1 hour at 37° C. The slides were washed with TBST and then incubated with primary antibody (1 μg/ml) against ITGA11 for 1 hour at 37° C. Then slides were washed and incubated with fluorescent dye labeled secondary antibodies for 30 minutes. The slides were washed with TBST and water and then dried and scanned with a microarray scanner to detect binding of the peptides. The enlightened spots were analyzed using ImageJ software. To determine the unspecific binding, a peptide array was incubated with only primary and secondary antibodies without the receptor incubation step. Then, the signal of unspecific binding was subtracted from the total binding to calculate specific binding.

[3] = target: T1, ITGA11 on human stellate cells (LX2 hepatic stellate cells; primary pancreatic stellate cells) (human); test: fluorescence microscopy on LX2 hepatic stellate cells, 20 µM FITC-peptide
[4] = target: T1, ITGA11 on human stellate cells (LX2 hepatic stellate cells; primary pancreatic stellate cells) (human); test: fluorescence microscopy on LX2 cells
[5] = target: T1, ITGA11 on human stellate cells (LX2 hepatic stellate cells; primary pancreatic stellate cells) (human); test: flow cytometry of AXI-I-PEG-FITC on suspended primary human pancreatic stellate cells, 1 hour at 4 °C
[6] = target: T1, ITGA11 on human stellate cells (LX2 hepatic stellate cells; primary pancreatic stellate cells) (human); test: flow cytometry on primary human pancreatic stellate cells
[7] = target: T1, ITGA11 on human stellate cells (LX2 hepatic stellate cells; primary pancreatic stellate cells) (human); test: fluorescence microscopy on LX2 cells; shRNA knockdown of ITGA11 gave complete inhibition
[8] = target: T1, ITGA11 on human stellate cells (LX2 hepatic stellate cells; primary pancreatic stellate cells) (human); test: fluorescence microscopy of FITC-labelled AXI-I on LX2 cells with and without shRNA knockdown of ITGA11
[9] = target: T1, ITGA11 on human stellate cells (LX2 hepatic stellate cells; primary pancreatic stellate cells) (human); test: fluorescence microscopy on LX2 cells with and without ITGA11 knockdown
rhIntegrin α11β1 [10] = target: T2, rhIntegrin α11β1; test: peptide microarray incubated with α11β1, anti-ITGA11 detection

binding [1]: binds | binding ([1]; record 2): binds | binding (rhIntegrin α11β1 [2]): binds | binding (rhIntegrin α11β1 [2]; record 2): binds | binding (rhIntegrin α11β1 [2]; record 3): binds | binding (rhIntegrin α11β1 [2]; record 4): binds | binding (rhIntegrin α11β1 [2]; record 5): binds | binding [3]: binds | binding ([3]; record 2): binds | binding [4]: binds | binding ([4]; record 2): binds | binding [5]: binds | binding [6]: binds | binding [7]: binds | binding [8]: binds | binding [9]: binds | binding (rhIntegrin α11β1 [10]): binds | binding (rhIntegrin α11β1 [10]; record 2): binds | binding (rhIntegrin α11β1 [10]; record 3): binds | binding (rhIntegrin α11β1 [10]; record 4): binds
B1: … (peptide)
peptide: SGLTEWLRWFAS
modifications: N-terminus linked to glass slide via PEG linker (microarray)
